No constants are given. Whether binding was seen depends on the method and setting. Binding seen in cells or lysates may run through a third protein.
Biological target: p53 (endogenous, p53 wt/wt HCT116) (human (endogenous in HCT116)) (UniProt P04637)
Test: co-IP; p53 precipitated from PHD1-silenced (and control) HCT116, untreated or treated with 300 μM 5-FU for 8 h; blot for XPD

B1: XPD (component of TFIIH) (enzyme, UniProt P18074 1-760)
chain: MKLNVDGLLVYFPYDYIYPEQFSYMRELKRTLDAKGHGVLEMPSGTGKTVSLLALIMAYQRAYPLEVTKLIYCSRTVPEIEKVIEELRKLLNFYEKQEGEKLPFLGLALSSRKNLCIHPEVTPLRFGKDVDGKCHSLTASYVRAQYQHDTSLPHCRFYEEFDAHGREVPLPAGIYNLDDLKALGRRQGWCPYFLARYSILHANVVVYSYHYLLDPKIADLVSKELARKAVVVFDEAHNIDNVCIDSMSVNLTRRTLDRCQGNLETLQKTVLRIKETDEQRLRDEYRRLVEGLREASAARETDAHLANPVLPDEVLQEAVPGSIRTAEHFLGFLRRLLEYVKWRLRVQHVVQESPPAFLSGLAQRVCIQRKPLRFCAERLRSLLHTLEITDLADFSPLTLLANFATLVSTYAKGFTIIIEPFDDRTPTIANPILHFSCMDASLAIKPVFERFQSVIITSGTLSPLDIYPKILDFHPVTMATFTMTLARVCLCPMIIGRGNDQVAISSKFETREDIAVIRNYGNLLLEMSAVVPDGIVAFFTSYQYMESTVASWYEQGILENIQRNKLLFIETQDGAETSVALEKYQEACENGRGAILLSVARGKVSEGIDFVHHYGRAVIMFGVPYVYTQSRILKARLEYLRDQFQIRENDFLTFDAMRHAAQCVGRAIRGKTDYGLMVFADKRFARGDKRGKLPRWIQEHLTDANLNLTVDEGVQVAKYFLRQMAQPFHREDQLGLSLLSLEQLESEETLKRIEQIAQQL
Q: Which binding does the source give for B1 here?
A: The binding was “no binding”.
